# Assay results published in paper PMC6370850.
# B1: Xpress-Hectd3 (enzyme, UniProt Q3U487 1-861)
# chain: MAGPGPGAALESPRQLLGRVRFLAEAARSLRAGLPLPAALAFVPREVLYKLYKDPAGPSRVLLPVWEAEGLGLRVGAVGAAPGTGSGPLRAARDSIELRRGACVRTTGEELCNGHGLWVKLTKEQLAEHLSDCSLDEGWLLVCRPAEGGARLVPIDTPDHLQRQQQLFGVDYRPVLRWEQVVDLTYSHRLGSRPQPAEAYTEAIQRLLYVPPTWTYECDEDLIHFLYDHLGKEDENLGSVKQYVESIDVSSYTEEFNVSCLTDSNADTYWESDGSQCQHWVRLTMKKGTIVKKLLLTVDTTDDNFMPKRVVVYGGEGDNLKKLSDVNIDETLIGDVCVLEDMTVHLPIIEIRIVECRDDGIDVRLRGVKIKSSRQRELGLNADLFQPASLVRYPRLEGTDPEVLYRRAVLLQRFIKILDSVLHHLVPAWDHTLGTFSEIKQVKQFLLLSRQRPSLVAQCLRDSESSKPSFMPRLYINRRLAMEHRACPSRDPACKNAVFTQVYEGLKPSDKYEKPLDYRWPMRYDQWWECKFIAEGIIDQGGGFRDSLADMSEELCPSSADTPVPLPFFVRTANQGNGTGEARDMYVPNPSCRDFAKYEWIGQLMGAALRGKEFLVLALPGFVWKQLSGEEVSWSKDFPAVDSVLVKLLEVMEGVDKETFEFKFGKELTFTTVLSDQQVVELIPGGTGIVVEYEDRSRFIQLVRKARLEESKEQVAAMQAGLLKVVPQAVLDLLTWQELEKKVCGDPEVTVDALRKLTRFEDFEPSDTRVQYFWEALNNFTNEDRSRFLRFVTGRSRLPARIYIYPDKLGYETTDALPESSTCSSTLFLPHYASAKVCEEKLRYAAYNCVAIDTDMSPWEE
# Biological target: Flag-Stat3 ΔLD (mouse)
# Test: co-IP; Flag or Xpress immunoprecipitation of protein extracts from HEK293T cells co-transfected with Flag-Stat3 and Xpress-Hectd3 constructs (HA-Ub co-transfected in Fig. 9a); immunoblot
binder,measurement,value
B1,binding,no binding

# These are yes or no findings as the source states them, for the method shown. Binding seen in cells or lysates may run through a third protein.
